Our source for the binding values is paper PMC2935968.

Experiment [1] deals with GST-Rar1 with a mutation of Glu170 (Arabidopsis thaliana) (UniProt Q9SE33). Kind of experiment: pull-down; GST-Rar1 constructs as bait, one partner alone (Hsp90 or Sgt1); recombinant proteins; conditions in the Supplemental Information; both purified.
Experiment [2] has as its target T1, GST-Rar1 W217T (Arabidopsis thaliana) (UniProt Q9SE33).
T1 sequence: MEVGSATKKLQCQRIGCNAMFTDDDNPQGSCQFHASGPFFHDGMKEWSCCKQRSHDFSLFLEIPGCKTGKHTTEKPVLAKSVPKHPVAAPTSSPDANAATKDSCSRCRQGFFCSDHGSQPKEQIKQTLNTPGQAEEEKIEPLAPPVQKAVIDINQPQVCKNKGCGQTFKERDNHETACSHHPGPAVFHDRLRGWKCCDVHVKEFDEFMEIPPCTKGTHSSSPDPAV
The experiment is described as above.

Experiment [3] has as its target T2, GST-Rar1 K45E (Arabidopsis thaliana) (UniProt Q9SE33).
T2 sequence: T1 sequence with K45E, T217W
Kind of experiment: pull-down; GST-Rar1 constructs as bait, Hsp90 and Sgt1 both present; both purified.

Changes are numbered by the printed parent chain. These are yes or no findings as the source states them, for the method shown. For part of these data: A result given as binding can be weak or reduced; the word gives no strength. For part of these data: Sequences can lack the tags named with a protein.

As to Hsp90 (from UniProt Q7XJ80 1-700), in experiment [1], the binding entry is listed as “binds”.

For Sgt1 (Arabidopsis), the binding result in experiment [2] is listed as “no binding”; in experiment [3], “binds”.
